No constants are given. Whether binding was seen depends on the method and setting. Binding seen in cells or lysates may run through a third protein. Some results given as binding are weak or reduced against the parent protein; the word gives no strength.
Biological target: Yes-associated protein 1 (YAP1) (human (endogenous in HL-7702)) (UniProt P46937)
Assay: co-IP; 50-75 ug of protein lysate incubated with anti-YAP1 (ab52771) overnight at 4 °C, protein G Plus-Sepharose at 25 °C for 2-4 h, blot with anti-P73; HL-7702 cells treated with D-GalN/LPS and with oe-NC, sh-NC, oe-NEAT1, sh-NEAT1, oe-LATS2 or sh-LATS2 lentivirus

The chains behind the UniProt entries cited, without tags or fusion partners.
UniProt P46937: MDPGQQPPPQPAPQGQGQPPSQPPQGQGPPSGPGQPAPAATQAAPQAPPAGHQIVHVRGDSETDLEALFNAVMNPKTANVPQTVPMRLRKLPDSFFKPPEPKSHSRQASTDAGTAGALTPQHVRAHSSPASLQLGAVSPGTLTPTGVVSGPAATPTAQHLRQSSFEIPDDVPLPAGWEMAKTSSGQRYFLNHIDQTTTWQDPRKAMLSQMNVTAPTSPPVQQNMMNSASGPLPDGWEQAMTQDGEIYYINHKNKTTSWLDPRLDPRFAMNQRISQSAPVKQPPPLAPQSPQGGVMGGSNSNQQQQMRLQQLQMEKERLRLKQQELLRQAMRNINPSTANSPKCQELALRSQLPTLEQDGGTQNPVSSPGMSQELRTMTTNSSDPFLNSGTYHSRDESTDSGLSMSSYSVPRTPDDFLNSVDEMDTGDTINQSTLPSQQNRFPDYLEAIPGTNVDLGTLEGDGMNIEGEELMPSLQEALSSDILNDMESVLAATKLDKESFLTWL

B1: P73 (protein, UniProt O15350 1-636)
chain: MAQSTATSPDGGTTFEHLWSSLEPDSTYFDLPQSSRGNNEVVGGTDSSMDVFHLEGMTTSVMAQFNLLSSTMDQMSSRAASASPYTPEHAASVPTHSPYAQPSSTFDTMSPAPVIPSNTDYPGPHHFEVTFQQSSTAKSATWTYSPLLKKLYCQIAKTCPIQIKVSTPPPPGTAIRAMPVYKKAEHVTDVVKRCPNHELGRDFNEGQSAPASHLIRVEGNNLSQYVDDPVTGRQSVVVPYEPPQVGTEFTTILYNFMCNSSCVGGMNRRPILIIITLEMRDGQVLGRRSFEGRICACPGRDRKADEDHYREQQALNESSAKNGAASKRAFKQSPPAVPALGAGVKKRRHGDEDTYYLQVRGRENFEILMKLKESLELMELVPQPLVDSYRQQQQLLQRPSHLQPPSYGPVLSPMNKVHGGMNKLPSVNQLVGQPPPHSSAATPNLGPVGPGMLNNHGHAVPANGEMSSSHSAQSMVSGSHCTPPPPYHADPSLVSFLTGLGCPNCIEYFTSQGLQSIYHLQNLTIEDLGALKIPEQYRMTIWRGLQDLKQGHDYSTAQQLLRSSNAATISIGGSGELQRQRVMEAVHFRVRHTITIPNRGGPGGGPDEWADFGFDLPDCKARKQPIKEEFTEAEIH
Question: B1 was tested. Which binding did it give?
Answer: binds

Reference: article PMC7156754
